PubChem BioAssay AID1259405, NCATS, 2018
The deposit covers about 50,000 reagents; below is an unselected part. About 4,000 of all reagents (8%) count as active. 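Mouse siRNA library applied to hamster cells; one well for each siRNA.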 The numbers tell different reagents against one gene apart.

Screen: 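Mouse-designed siRNAs used to find CHO productivity engineering targets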 (primary screen)
Cell system: Chinese hamster CHO-K1 ovary cells with stable secreted eGFP expression
Knock-down reagent: single siRNA against mouse genes, 0.8 pmol siRNA per well (2 µl of 400 nM stock)
Duration: 3 days
Measured: 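Per-well intracellular GFP measured by laser scanning cytometry, plus viability from ATP luminescence, each relative to plate median of non-targeting control wells, in %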
Direction: GFP, % of control: higher = more GFP per well, higher productivity; viability (ATP), % of control: higher = more viable cells (more ATP)
Hit rule: 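Called active when intracellular GFP, relative to negative control, is at or above 120%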

The first 3 records as a preview:
Vars1 (valyl-tRNA synthetase 1) #1 | GFP, % of control = 77.9; viability (ATP), % of control = 83.2; Outcome = inactive
Vars1 (valyl-tRNA synthetase 1) #2 | GFP, % of control = 80.2; viability (ATP), % of control = 68.1; Outcome = inactive
Tmem60 (transmembrane protein 60) #1 | GFP, % of control = 93.5; viability (ATP), % of control = 102; Outcome = inactive

Results, repeating the preview:
Vars1 (valyl-tRNA synthetase 1) #1 | GFP, % of control = 77.9; viability (ATP), % of control = 83.2; Outcome = inactive
Vars1 (valyl-tRNA synthetase 1) #2 | GFP, % of control = 80.2; viability (ATP), % of control = 68.1; Outcome = inactive
Tmem60 (transmembrane protein 60) #1 | GFP, % of control = 93.5; viability (ATP), % of control = 102; Outcome = inactive
Tmem60 (transmembrane protein 60) #2 | GFP, % of control = 67.3; viability (ATP), % of control = 85.2; Outcome = inactive
Tmem60 (transmembrane protein 60) #3 | GFP, % of control = 163; viability (ATP), % of control = 180; Outcome = active
4930590J08Rik (RIKEN cDNA 4930590J08 gene) #1 | GFP, % of control = 75.7; viability (ATP), % of control = 79.7; Outcome = inactive
4930590J08Rik (RIKEN cDNA 4930590J08 gene) #2 | GFP, % of control = 66.8; viability (ATP), % of control = 55; Outcome = inactive
4930590J08Rik (RIKEN cDNA 4930590J08 gene) #3 | GFP, % of control = 118; viability (ATP), % of control = 127; Outcome = inactive
Clec11a (C-type lectin domain family 11, member a) #1 | GFP, % of control = 74; viability (ATP), % of control = 105; Outcome = inactive
Clec11a (C-type lectin domain family 11, member a) #2 | GFP, % of control = 97.2; viability (ATP), % of control = 73.1; Outcome = inactive
Clec11a (C-type lectin domain family 11, member a) #3 | GFP, % of control = 72.1; viability (ATP), % of control = 56.1; Outcome = inactive
Mcub #1 | GFP, % of control = 85.1; viability (ATP), % of control = 80.6; Outcome = inactive
Mcub #2 | GFP, % of control = 74.3; viability (ATP), % of control = 63; Outcome = inactive
Mcub #3 | GFP, % of control = 91.9; viability (ATP), % of control = 114; Outcome = inactive
Or52r1c (olfactory receptor family 52 subfamily R member 1C) #1 | GFP, % of control = 126; viability (ATP), % of control = 64.2; Outcome = active
Or52r1c (olfactory receptor family 52 subfamily R member 1C) #2 | GFP, % of control = 101; viability (ATP), % of control = 61.4; Outcome = inactive
Or52r1c (olfactory receptor family 52 subfamily R member 1C) #3 | GFP, % of control = 88.5; viability (ATP), % of control = 102; Outcome = inactive
Cd200r2 (Cd200 receptor 2) #1 | GFP, % of control = 81.8; viability (ATP), % of control = 54.2; Outcome = inactive
Cd200r2 (Cd200 receptor 2) #2 | GFP, % of control = 67.5; viability (ATP), % of control = 82.4; Outcome = inactive
Cd200r2 (Cd200 receptor 2) #3 | GFP, % of control = 62; viability (ATP), % of control = 43.4; Outcome = inactive
Cntrob (centrobin, centrosomal BRCA2 interacting protein) #1 | GFP, % of control = 79.5; viability (ATP), % of control = 65.8; Outcome = inactive
Cntrob (centrobin, centrosomal BRCA2 interacting protein) #2 | GFP, % of control = 57.8; viability (ATP), % of control = 60.4; Outcome = inactive
Cntrob (centrobin, centrosomal BRCA2 interacting protein) #3 | GFP, % of control = 65.5; viability (ATP), % of control = 57; Outcome = inactive
Blmh (bleomycin hydrolase) #1 | GFP, % of control = 47; viability (ATP), % of control = 86.7; Outcome = inactive
Blmh (bleomycin hydrolase) #2 | GFP, % of control = 69.7; viability (ATP), % of control = 72.2; Outcome = inactive
Blmh (bleomycin hydrolase) #3 | GFP, % of control = 50.3; viability (ATP), % of control = 62.3; Outcome = inactive
Efna4 (ephrin A4) #1 | GFP, % of control = 85; viability (ATP), % of control = 61; Outcome = inactive
Efna4 (ephrin A4) #2 | GFP, % of control = 121; viability (ATP), % of control = 84.2; Outcome = active
Efna4 (ephrin A4) #3 | GFP, % of control = 29.6; viability (ATP), % of control = 31.2; Outcome = inactive
